Values quoted from earlier work, collected in patent US20160045529A1, “Pharmaceutical Compositions Containing Palmitoylethanolamide And Cytidine-Diphosphocholine And Methods Of Treatment Therewith” (EPITECH GROUP S.R.L., priority 2014, published 2016).
For at least one compound, name, drawing or mass did not settle the structure.

Tested on: stroke model from ligation of the middle cerebral artery
Conditions: animals, dose of 500 mg/kg; cited from earlier work

## C[N+](C)(C)CCOP(=O)(O)OP(=O)([O-])OC[C@H]1O[C@@H](n2ccc(N)nc2=O)[C@H](O)[C@@H]1O [Citicoline, Cytidine-diphosphocholine]
  parenchymal cerebral damage in the stroke model: reducing the parenchymal cerebral damage
